From patent EP4520345A1, “PRODUCT” (MYNEO NV, priority 2023, dated 2025)

B1: IncSLC39A1 021699888: camyopeptide translated from an ORF in camyoRNA Inc-SLC39A10-2:1 (peptide)
chain: MYQHVHHYTVIGLGKAEEKQEPASSSYKQKSCLGVVAHACNPSTLGGQSGRITRSGDRDHPG
B2: IncPLA2G1B 231094711 151: camyopeptide translated from an ORF in camyoRNA Inc-PLA2G1B-2:3 (peptide)
chain: MFDTGCSNNKKPPMQMGLKYGWWSGNTSYTRTHGQALTLNVMVVIIRGGAGREQNLSSFAQWQYRSQ
B3: IncTRPC531 28328: camyopeptide translated from an ORF in camyoRNA Inc-TRPCS-3:1 (peptide)
chain: MAASAKKKNKKGKTISLTDFLAEDGGTGGGSTYVSKPVSWADETMTWKEMFRQLGTVTMTMCIGCLQLTVPSFPLLHGLLGNPISTGAVFPNRHPTLLF
B4: IncTRPC531 16031801: camyopeptide translated from an ORF in camyoRNA Inc-TRPCS-3:1 (peptide)
chain: MNVPKGQTGNSSRGPGDGGNKDHWKESDRKDGKKDQDSRSAPEPKKPEENPASKFSSASNYAALS
B5: IncSLC39A1 071155617 69: camyopeptide translated from an ORF in camyoRNA Inc-SLC39A10-7:1 (peptide)
chain: MKRRNLKTDTPKENAMWRHREKLAIYKPTRIAWNKFFHHTPQKESTLTAPPLQSCSLQNCETIHFCCLRR
B6: IncSLC39A1 071154117 69: camyopeptide translated from an ORF in camyoRNA Inc-SLC39A10-7:1 (peptide)
chain: MVDVLMKRRNLKTDTPKENAMWRHREKLAIYKPTRIAWNKFFHHTPQKESTLTAPPLQSCSLQNCETIHFCCLRR
B7: IncTH11352 83804: camyopeptide translated from an ORF in camyoRNA Inc-TH-1:1 (peptide)
chain: MCSQWPWQNLTKSAPATRPASKDALSRRPLQLSSDCPRDTLSEHCPAKTRQLQNCERRWFHDFLAVVTAVGQLWVTLKGHSDKGHLPACVT
B8: IncTH11352 23804: camyopeptide translated from an ORF in camyoRNA Inc-TH-1:1 (peptide)
chain: MQMCSQWPWQNLTKSAPATRPASKDALSRRPLQLSSDCPRDTLSEHCPAKTRQLQNCERRWFHDFLAVVTAVGQLWVTLKGHSDKGHLPACVT
B9: IncHOXB815 19402135: camyopeptide translated from an ORF in camyoRNA Inc-HOXB8-1:5 (peptide)
chain: MENLLLSHPEGHLTRPLEQTKGAGSQSLRSQFSEAQEENGFSFVLVRRPSREFGFHQVLFFQKK
B10: LINC024189 28443054: camyopeptide translated from an ORF in camyoRNA LINC02418:9 (peptide)
chain: MELRIISTTRAGVRQDAQSIHPMTGALCLRSAKPRSEVLTRLHQEQGTRLPRGSWSTEGRDAHKHTMSK
B11: IncTACR311 255462: camyopeptide translated from an ORF in camyoRNA Inc-TACR3-1:1 (peptide)
chain: MKRAWPPCHSGERQSKTKKTESCSATQAGVEGSGVISAHFNLRLLGSSDSPASASRVAGTTAASLQVS
B12: LINC024189 42034404: camyopeptide translated from an ORF in camyoRNA LINC02418:9 (peptide)
chain: MSLLIRECLSSLYLNFSKRENAFRTSNSDGSRVFLAALFLNEDSPGGSLCCRDTQISPCSCSFQSF

Test system: colorectal cancer tissue
Assay: Mass spectrometry proteomics: translation of camyopeptides in colorectal cancer tissue samples
Conditions: share of colorectal cancer tissue samples in which the camyopeptide is detected as translated
Description: Mass spectrometry was used to derive proteomics data from the colorectal cancer tissue. The data was analysed and 79 polypeptides (camyopeptides; and defined according to SEQ ID NOs 19-97) corresponding to open reading frames (ORFs) in the 18 camyoRNAs defined according to SEQ ID NOs 1-18 were determined as being translated.

Row | Molecule | Translation Coverage (MS) [%]
1 | IncSLC39A1 071160117 69: camyopeptide translated from an ORF in camyoRNA Inc-SLC39A10-7:1 (MWRHREKLAIYKPTRIAWNKFFHHTPQKESTLTAPPLQSCSLQNCETIHFCCLRR) | 1.05
2 | IncFANCM1 0122163: camyopeptide translated from an ORF in camyoRNA Inc-FANCM-10:1 (MMARLKTVRSSCLDRKATGCSPGSCVRILTALTMPRKGRSCCFIRD) | 8.42
3 | LINC024189 23092465: camyopeptide translated from an ORF in camyoRNA LINC02418:9 (MAAEPLVGAECRVCSVNMPGKGIMHVRDRVEKDCARLHHTTQNGTQFRTYK) | 14.74
4 | IncFANCM1 0125163: camyopeptide translated from an ORF in camyoRNA Inc-FANCM-10:1 (MARLKTVRSSCLDRKATGCSPGSCVRILTALTMPRKGRSCCFIRD) | 8.42
5 | B1 | 20
6 | B2 | 16.84
7 | B3 | 12.63
8 | B4 | 81.05
9 | B5 | 9.47
10 | B6 | 9.47
11 | B7 | 5.26
12 | B8 | 5.26
13 | B9 | 5.26
14 | B10 | 3.16
15 | B11 | 3.16
16 | B12 | 1.05
